Laboratory results as given in article PMC7819943, “Rice protein-binding microarrays: a tool to detect cis-acting elements near promoter regions in rice”.
Some of the results follow.

molecular target: T1, OsSMF1 (Oryza sativa, UniProt Q6ZLB0 1-436); experiment: protein-binding microarray (RPBM); PBS, 2% BSA, 51.3 ng/ul salmon testes DNA, 50 uM zinc acetate, 200 nM TF, 25 C, 1 h; high values mean tight binding; conditions: protein: recombinant; tags: N-terminal polyhistidine and DsRed monomer fusion (pET32a); chain copies: 2; label: CyDye5-dUTP incorporated in the synthesized complementary strand; 3' TTTTT single-stranded linker to array surface; dsDNA, one strand shown
T1 sequence: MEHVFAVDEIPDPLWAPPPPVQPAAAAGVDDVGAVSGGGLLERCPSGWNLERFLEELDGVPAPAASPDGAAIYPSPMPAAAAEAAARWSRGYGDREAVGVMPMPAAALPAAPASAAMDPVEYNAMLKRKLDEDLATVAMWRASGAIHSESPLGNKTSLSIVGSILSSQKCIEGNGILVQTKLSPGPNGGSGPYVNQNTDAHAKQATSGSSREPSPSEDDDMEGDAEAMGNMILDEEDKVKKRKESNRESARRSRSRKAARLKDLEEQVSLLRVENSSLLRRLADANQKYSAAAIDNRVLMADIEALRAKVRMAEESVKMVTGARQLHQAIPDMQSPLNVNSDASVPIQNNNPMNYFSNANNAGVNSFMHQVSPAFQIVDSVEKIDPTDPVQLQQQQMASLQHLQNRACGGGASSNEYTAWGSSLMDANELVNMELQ
Outline: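 Transcription factors, each fused N-terminally to a polyhistidine tag and DsRed, were expressed in E. coli BL21-CodonPlus and purified on Ni–NTA. A custom Agilent array was made double-stranded by primer extension with Cy5-dUTP and blocked with 2% BSA. It was incubated with 200 nM protein in PBS, 2% BSA, salmon testes DNA and 50 µM zinc acetate at 25 °C for 1 h, then washed. The binding signal is per-feature fluorescence intensity (arbitrary units) read on an Axon 4000B scanner.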

Sequence	binding signal
GTCTTCTGAATTTTGACGCACAAATAATTGTGTCAACATACGGAGTCACCTAGTGCAG	17000 fluorescence intensity (a.u.)
AGTCGTGTGCTTAGGGAAACGGTGACGACATAAAAGCGACCGGAGTCACCTAGTGCAG	3530 fluorescence intensity (a.u.)
GGGACCCACCCGCGCGTGGGGCCCACGCGTCAGCCTCGCTCGGAGTCACCTAGTGCAG	20700 fluorescence intensity (a.u.)
TCATGCGGTTCGTGTTCGGCAAGGAGTACGACGTGTCGCGCGGAGTCACCTAGTGCAG	5800 fluorescence intensity (a.u.)
ACTGTAGTAGTAGTAGATTCGCTTGCCGTCACTCTCGTCCCGGAGTCACCTAGTGCAG	3170 fluorescence intensity (a.u.)
GATCCTGATAGGACTGCGCATGTGCTTGTGGGACACGTCGCGGAGTCACCTAGTGCAG	3170 fluorescence intensity (a.u.)
TTCTAAGAATCTAGTAAAACTGGGTTTCTCAGCTTCTGGCCGGAGTCACCTAGTGCAG	26000 fluorescence intensity (a.u.)
AATAAGAGGGAAGAGATGAGGTGGCACCCTGATATGTGGGCGGAGTCACCTAGTGCAG	11900 fluorescence intensity (a.u.)
GGCACCTCGCCGCCGGGCGCGGTGGTCTACCCGCCGCATCCGGAGTCACCTAGTGCAG	3400 fluorescence intensity (a.u.)
GGGGCGGGGCGGCCGTGCTTACACATGTTGGCAACGCACGCGGAGTCACCTAGTGCAG	4390 fluorescence intensity (a.u.)
GTCACTGGCTTTGTTCCCGTTCTATATATGTCATTGAGTTCGGAGTCACCTAGTGCAG	4290 fluorescence intensity (a.u.)
CTCTCGCTCCGATCGTCCGCGCCACGGCGGCGACACGATGCGGAGTCACCTAGTGCAG	6580 fluorescence intensity (a.u.)
ACGATCCCCGAGCCTCTCTCGCGCGCGTCCCGTCACGTCTCGGAGTCACCTAGTGCAG	3800 fluorescence intensity (a.u.)
ATTAAGCACTACGTCAGATATGATTGGCCATCATTGCATTCGGAGTCACCTAGTGCAG	3150 fluorescence intensity (a.u.)
CCAGTGACGGGAAACGCCACCTCCGCGCCACGCCTCATCGCGGAGTCACCTAGTGCAG	4240 fluorescence intensity (a.u.)
GCGCGCAAGGCGGCGTCGCTGACAGGGCCGACGCTTTCCCCGGAGTCACCTAGTGCAG	4420 fluorescence intensity (a.u.)
ATTCGTAGTACTATGATGTGTCACATTCAATTTTAGATTGCGGAGTCACCTAGTGCAG	5750 fluorescence intensity (a.u.)
ATATTTGAACCGGTACAAAACCGTCGAACCAGCAGGTTTTCGGAGTCACCTAGTGCAG	24700 fluorescence intensity (a.u.)
TGCAGGAACGAAATCAAACTTGTTTTCAAGTTAAGGATCTCGGAGTCACCTAGTGCAG	30800 fluorescence intensity (a.u.)
GATTGGCTTGGGTTTGACAGGTTAATAAGCCACGTCAGTTCGGAGTCACCTAGTGCAG	9760 fluorescence intensity (a.u.)
CCACTACATTTGAACCGGAATGTACGTGGCCAAAGGATTTCGGAGTCACCTAGTGCAG	4680 fluorescence intensity (a.u.)

Sequence	binding signal
TGACTTTATGAATCCAACATTGAGCAATGCTACAGCTCCACGGAGTCACCTAGTGCAG	3280 fluorescence intensity (a.u.)
AAAACAAACCCATTTGATATATTTCCAATTTGTATATTTCCGGAGTCACCTAGTGCAG	3830 fluorescence intensity (a.u.)
TAGAAAGTATAGATAAATATTCTTCATGCCACATAATTGGCGGAGTCACCTAGTGCAG	3420 fluorescence intensity (a.u.)
ATATCCACCCCTAGTTCCAACTTATTAGTCATTTACAAGTCGGAGTCACCTAGTGCAG	4040 fluorescence intensity (a.u.)
GGAGCTGAGGAGGGACAGCGAGCCAGCGAGGGAGGTGGGGCGGAGTCACCTAGTGCAG	3160 fluorescence intensity (a.u.)
AGGGAATTACCAGCTGTAAATGATATGGAGGAATTTGAATCGGAGTCACCTAGTGCAG	4140 fluorescence intensity (a.u.)
ACCCACACATCATTCTCTCTTTTCTCTATCCCTCTCTATCCGGAGTCACCTAGTGCAG	3960 fluorescence intensity (a.u.)
CTGAGGGACCTAAAGTAAACGGTTTTGTAAGTTGAGATGGCGGAGTCACCTAGTGCAG	35300 fluorescence intensity (a.u.)
AACCGCGCACCCGTGGCGGTCAACTCGACCGGCTCCAACCCGGAGTCACCTAGTGCAG	3330 fluorescence intensity (a.u.)
GACACACGTCACTTCTCAACACGGTCTCCCTCTCTGCCTCCGGAGTCACCTAGTGCAG	8560 fluorescence intensity (a.u.)
CACGGCGTGTGCACGGACATGCAGTACTGCTGCCCTGACTCGGAGTCACCTAGTGCAG	3490 fluorescence intensity (a.u.)
TTACGATCACCGAAAAGTGGTAGCGTACGTGTTGAGTGTGCGGAGTCACCTAGTGCAG	4140 fluorescence intensity (a.u.)
GATGAAGAGGAAGAGGAGACAGTGCTCGACACGCCTGCAGCGGAGTCACCTAGTGCAG	4180 fluorescence intensity (a.u.)
AAAATCCAAAGCTGCTGGGGTCAGCTCAGCTCGAACCCTGCGGAGTCACCTAGTGCAG	3210 fluorescence intensity (a.u.)
TCGTATAGGTCCACGAGGGCGGGACCAGCTGTAACCGTGACGGAGTCACCTAGTGCAG	4400 fluorescence intensity (a.u.)
GAGCTTCATCAGGACTGGTGGGTAAGCCCCATCATCTTGACGGAGTCACCTAGTGCAG	3200 fluorescence intensity (a.u.)
ATACAAAACTAGAAACAAGACATACCAACATCACAACATGCGGAGTCACCTAGTGCAG	26100 fluorescence intensity (a.u.)
TGTTCCATGGATATACATGTCATATACTTATTTTCTAGCCCGGAGTCACCTAGTGCAG	3930 fluorescence intensity (a.u.)
TGCAAGCCCCGCTGAGCTGCACATGACTAGGACCCTATTTCGGAGTCACCTAGTGCAG	8240 fluorescence intensity (a.u.)
CCGTCTCCACGCACTCGAACGTCACCGACGACCCCGGCAGCGGAGTCACCTAGTGCAG	5490 fluorescence intensity (a.u.)
CTGCCAAGTAGGGTCCTGCTTGCTGAGGTCATACCCCACGCGGAGTCACCTAGTGCAG	3560 fluorescence intensity (a.u.)

Copied from the list.
In binding signal, ACCCACACATCATTCTCTCTTTTCTCTATCCCTCTCTATCCGGAGTCACCTAGTGCAG reads 3960 fluorescence intensity (a.u.)
In binding signal, CACGGCGTGTGCACGGACATGCAGTACTGCTGCCCTGACTCGGAGTCACCTAGTGCAG reads 3490 fluorescence intensity (a.u.)
